{
  "source": "PubChem BioAssay AID540276",
  "about": "(National Center for Advancing Translational Sciences (NCATS), 2011)",
  "note": "The campaign covered roughly 300,000 compounds. About 5,400 (1.8%) were called active. This list was built around the results that the source calls inconclusive (neither active nor inactive); the mix of calls is not that of the screen. Calls come from the whole dose curve; tested in HEK293 cells. Potencies of inconclusive entries are doubtful fits and often do not repeat. Potency is the fitted concentration of half-maximal effect.",
  "data": [
    {"experiment": "qHTS for inhibitors of binding or entry into cells for Marburg Virus", "conditions": "Marburg virus pseudotyped entry inhibition, cell reporter; series mostly up to 37.8 µM", "values": [
      {"smiles": "Cn1c(=O)c2c(ncn2CC(=O)OCCCC(=O)c2ccc(Br)cc2)n(C)c1=O", "Potency": "inconclusive: 10 µM [inhibitor, partial curve, poor fit]"},
      {"smiles": "COC(=O)Cn1c(=NC(=O)c2cccc(OC)c2)sc2cc(OC)ccc21", "Potency": "inconclusive: 0.1 µM [activator, full curve, poor fit]"},
      {"smiles": "CCN1CCN(Cc2c3ccccc3cc3ccccc23)CC1", "Potency": "inconclusive: 8.91 µM [inhibitor, single point]"},
      {"smiles": "CC1CCc2nc3ccc(S(=O)(=O)N4CCC(C(=O)NCc5ccccc5Cl)CC4)cc3c(C(=O)O)c2C1", "note": "(stereo not given)", "Potency": "inconclusive: 11.2 µM [activator, partial curve, poor fit]"},
      {"smiles": "COCCCNC(=O)Cn1nnc(-c2ccc(NC(=O)c3ccccc3OC)cc2)n1", "Potency": "inactive"},
      {"smiles": "Cc1ccc2c(CC(=O)Nc3ccc(S(=O)(=O)N4CCC(C)CC4)cc3)coc2c1", "Potency": "inactive"},
      {"smiles": "CNCCCC1Sc2ccccc2Oc2ccccc21", "note": "(stereo not given)", "Potency": "inconclusive: 35.5 µM [inhibitor, single point]"},
      {"smiles": "CCOC(=O)c1sc(NC(=O)Nc2cccc(Cl)c2)cc1C", "Potency": "inconclusive: 29.1 µM [inhibitor, single point]"},
      {"smiles": "O=C(C1CC1)N1CCc2cc(Br)c(S(=O)(=O)N3CCCCCC3)cc21", "Potency": "inconclusive: 35.5 µM [inhibitor, single point]"},
      {"smiles": "COc1cccc(C(=O)Nc2ccc(F)cc2F)c1", "Potency": "inactive"},
      {"smiles": "COc1ccccc1-c1ccc(/C=N/O)o1", "Potency": "inactive"},
      {"smiles": "Cc1cccc(NC(c2cccc(Cl)c2)c2ccc3cccnc3c2O)n1", "note": "(stereo not given)", "Potency": "inconclusive: 11.2 µM [inhibitor, partial curve, poor fit]"},
      {"smiles": "O=c1c2ccccc2nc(-c2ccco2)n1-c1ccc(Br)cc1", "Potency": "inconclusive: 0.112 µM [inhibitor, full curve, poor fit]"},
      {"smiles": "CCOC(=O)C1(Cc2ccc(Cl)cc2)CCN(C(=O)CCc2ccncc2)CC1", "Potency": "inconclusive: 7.08 µM [inhibitor, partial curve, poor fit]"},
      {"smiles": "COc1ccc(OCCNC2CCCC2)cc1", "Potency": "inactive"},
      {"smiles": "O=Cc1ccc(-c2ccc(F)cc2)o1", "Potency": "inactive"},
      {"smiles": "COc1ccc([C@]23Cc4cc(OC)c(OC)cc4C(O2)c2c(cc(C)oc2=O)O3)cc1", "Potency": "inconclusive: 0.0335 µM [activator, full curve, poor fit]"},
      {"smiles": "Cc1ccccc1-c1nnc(Cc2ccccc2)o1", "Potency": "inconclusive: 1.78 µM [activator, partial curve, poor fit]"},
      {"smiles": "CC1=CC(c2ccccc2)NC(=S)N1", "note": "(stereo not given)", "Potency": "inconclusive: 35.5 µM [inhibitor, single point]"},
      {"smiles": "COc1ccc(S(=O)(=O)N2CCC(C(=O)Nc3ccc(Oc4ccccc4)cc3)CC2)cc1OC", "Potency": "inactive"},
      {"smiles": "COc1ccccc1NC(=S)NC(=O)CCc1ccccc1", "Potency": "inconclusive: 12.6 µM [inhibitor, single point]"},
      {"smiles": "Cc1ccc(S(=O)(=O)N(Cc2ccc(Cl)cc2)c2ccccc2C(=O)NCc2cccnc2)cc1", "Potency": "inconclusive: 10 µM [inhibitor, partial curve, poor fit]"},
      {"smiles": "Cc1ccccc1-c1nnc(CS(=O)(=O)c2ccccc2)o1", "Potency": "inconclusive: 0.631 µM [activator, full curve, poor fit]"},
      {"smiles": "COc1ccc(-c2nc3cc([N+](=O)[O-])ccc3o2)cc1OC", "Potency": "inactive"},
      {"smiles": "O=C1OC(c2ccccc2)c2ccc3ccccc3c21", "note": "(stereo not given)", "Potency": "inactive"},
      {"smiles": "Cc1c(C(=O)NCC2COc3ccccc3O2)oc2ccc(S(=O)(=O)N(C)C3CCCCC3)cc12", "note": "(stereo not given)", "Potency": "inconclusive: 16.4 µM [inhibitor, single point]"},
      {"smiles": "CC(=O)c1cccc(NC(=S)NC(=O)c2ccc(Br)cc2)c1", "Potency": "inactive"},
      {"smiles": "CC(C)c1ccc(/C=C2\\NC(=S)N(Cc3cccnc3)C2=O)cc1", "Potency": "inconclusive: 10 µM [inhibitor, partial curve, poor fit]"},
      {"smiles": "N#CC1=C(N)Oc2c(c(=O)sc3ccccc23)C1c1cccnc1", "note": "(stereo not given)", "Potency": "inconclusive: 1.58 µM [inhibitor, full curve]"},
      {"smiles": "Cc1c(CN(C)C(=O)/C=C/c2ccc([N+](=O)[O-])cc2)cnn1C", "Potency": "inconclusive: 0.562 µM [activator, full curve, poor fit]"},
      {"smiles": "C=CCOC(=O)N[C@@H](CCc1ccccc1)C(C(C)=O)C(C)=O", "Potency": "inactive"},
      {"smiles": "Cc1ccc(C(=O)C(OC(=O)CN2C(=O)c3ccccc3C2=O)c2ccccc2)cc1", "note": "(stereo not given)", "Potency": "inconclusive: 32.6 µM [activator, single point]"},
      {"smiles": "Cc1ccc2c(Cl)cc(Cl)c(OCC(=O)Nc3cc(S(=O)(=O)N(C)C)ccc3C)c2n1", "Potency": "active: 3.98 µM"},
      {"smiles": "CCCCCOc1ccc(/C=C/c2c([N+](=O)[O-])c(=O)n(C)c(=O)n2C)cc1", "Potency": "inconclusive: 3.55 µM [inhibitor, partial curve, poor fit]"},
      {"smiles": "Cc1ccc(OCC(=O)NNc2c3ccccc3nc3ccccc23)cc1", "Potency": "inconclusive: 23.1 µM [inhibitor, single point]"},
      {"smiles": "C/C(=N\\Nc1cccc2cccnc12)c1ccc(N)cc1", "Potency": "inconclusive: 3.55 µM [activator, full curve, poor fit]"},
      {"smiles": "Cc1ccc(-n2ncc3c(N4CCN(c5ccc(F)cc5)CC4)ncnc32)c(C)c1", "Potency": "inconclusive: 9.2 µM [inhibitor, partial curve]"},
      {"smiles": "CCOC(=O)/C=C/C(=O)Nc1nccs1", "Potency": "inconclusive: 35.5 µM [inhibitor, single point]"},
      {"smiles": "CC(C)CCC1CC(CSC(=N)N)OC1=O", "note": "(stereo not given)", "Potency": "inconclusive: 9.2 µM [inhibitor, partial curve, poor fit]"},
      {"smiles": "OCCN1CCN(CCCN2c3ccccc3Sc3ccc(Cl)cc32)CC1", "Potency": "active: 5.01 µM"},
      {"smiles": "CCC(C)C(NC(=O)c1ccccc1NC(=O)c1ccccc1)C(=O)N1CCOCC1", "note": "(stereo not given)", "Potency": "inconclusive: 0.708 µM [activator, partial curve, poor fit]"},
      {"smiles": "O=C(Nc1ccccc1)NN(C(=O)CCl)c1ccccc1", "Potency": "inconclusive: 2 µM [inhibitor, partial curve, poor fit]"},
      {"smiles": "COCCNC(=O)CN(C(=O)Cn1nnc2ccccc21)c1cccc(C)c1C", "Potency": "inactive"},
      {"smiles": "CC1Cc2nc(SCC(=O)Nc3ccc4c(c3)OCO4)n(-c3ccc(F)cc3)c(=O)c2S1", "note": "(stereo not given)", "Potency": "inactive"},
      {"smiles": "O=C(NC1CCCCC1)C(=S)N1CCOCC1", "Potency": "inconclusive: 3.16 µM [inhibitor, single point]"},
      {"smiles": "O=C(CCS(=O)(=O)c1ccc(Br)cc1)N1CCN(c2ccccc2Cl)CC1", "Potency": "inconclusive: 14.6 µM [inhibitor, single point]"},
      {"smiles": "O=C(N/N=C/c1ccc(N2CCOCC2)o1)c1cccc([N+](=O)[O-])c1", "Potency": "inconclusive: 5.62 µM [inhibitor, single point]"},
      {"smiles": "CC1C(=O)N2CCCc3cc(NC(=O)C(=O)NCc4cccnc4)cc1c32", "note": "(stereo not given)", "Potency": "inactive"},
      {"smiles": "C=CCOc1c(Cl)cc(CNCCCN2CCOCC2)cc1OC", "Potency": "active: 10 µM"},
      {"smiles": "O=C1NC2c3ccccc3C(=O)N2c2c1cnn2-c1ccccc1", "note": "(stereo not given)", "Potency": "inconclusive: 2 µM [inhibitor, single point]"},
      {"smiles": "C[C@H]1COc2cccc(F)c2S(=O)(=O)N1", "Potency": "inconclusive: 0.002 µM [activator, full curve, poor fit]"},
      {"smiles": "COC(=O)C1=C(C)N(C)C(=S)NC1c1ccc(Cl)cc1", "note": "(stereo not given)", "Potency": "inconclusive: 4.47 µM [activator, single point]"},
      {"smiles": "CC(CCc1ccccc1)NC(=O)CSc1nc(N)cc(N)n1", "note": "(stereo not given)", "Potency": "inconclusive: 0.146 µM [inhibitor, full curve, poor fit]"},
      {"smiles": "COc1cc(C=C2C(=O)NC(=O)NC2=O)ccc1OCc1ccc([N+](=O)[O-])cc1", "Potency": "inactive"},
      {"smiles": "Brc1ccc(Nc2nc3ccccc3n3nnnc23)cc1", "Potency": "inactive"},
      {"smiles": "OCCC1CN(Cc2ccc3nsnc3c2)CCN1CCc1ccccc1", "note": "(stereo not given)", "Potency": "inactive"},
      {"smiles": "CN1CCC(N(C)C(=O)Cc2ccccc2[N+](=O)[O-])CC1", "Potency": "inconclusive: 11.2 µM [inhibitor, partial curve, poor fit]"},
      {"smiles": "CC(=O)Nc1ccc(NC(=O)/C=C/c2cccc(C(F)(F)F)c2)cc1", "Potency": "inconclusive: 1.26 µM [activator, single point]"},
      {"smiles": "COc1ccc(C(CNC(=O)COc2cc(C)c(Cl)c(C)c2)N2CCCCC2)cc1", "note": "(stereo not given)", "Potency": "inconclusive: 35.5 µM [inhibitor, single point]"},
      {"smiles": "Cc1ccccc1OCCC(=O)OCC(=O)NC(C)c1ccccc1", "note": "(stereo not given)", "Potency": "inconclusive: 35.5 µM [activator, single point]"},
      {"smiles": "O=C(CCN1C(=O)C2C3C=CC(C3)C2C1=O)N1CCCCC1", "note": "(stereo not given)", "Potency": "inactive"},
      {"smiles": "COc1ccc2nc(N/C(N)=N/C(=S)Nc3ccccc3)nc(C)c2c1", "Potency": "inconclusive: 11.2 µM [inhibitor, partial curve, poor fit]"},
      {"smiles": "CN1CCC(N(C)C(=O)c2ccc(Cl)c(S(=O)(=O)N(C)c3ccc(Cl)cc3)c2)CC1", "Potency": "inconclusive: 22.4 µM [inhibitor, single point]"},
      {"smiles": "Cc1ccccc1C(=O)Nc1cccc(-c2nc3cccnc3s2)c1", "Potency": "inactive"},
      {"smiles": "O=C(O)COc1ccccc1/C=N/NC(=O)c1cccc(S(=O)(=O)N2CCOCC2)c1", "Potency": "inactive"},
      {"smiles": "Cc1ccsc1C(=O)N/N=C/c1ccc2c(c1)OCO2", "Potency": "inconclusive: 7.08 µM [inhibitor, partial curve, poor fit]"},
      {"smiles": "COc1ccc2c(c1)c1c3n2CCN(C)C3=NCC1", "Potency": "inconclusive: 8.91 µM [inhibitor, partial curve]"},
      {"smiles": "CC(C)(C)c1nnc(NS(=O)(=O)c2ccc(F)cc2)s1", "Potency": "inactive"},
      {"smiles": "CC1C(=O)N(Cc2cn(Cc3ccco3)nn2)CCS(=O)(=O)N1Cc1ccc(-c2ccc(F)cc2Cl)cc1", "note": "(stereo not given)", "Potency": "inconclusive: 0.0281 µM [inhibitor, full curve, poor fit]"},
      {"smiles": "O=[N+]([O-])c1ccccc1N/N=C\\c1ccccc1Cl", "Potency": "inconclusive: 1.26 µM [activator, single point]"}
    ]}
  ]
}
